Data source: PubChem BioAssay AID1224826 (NIAID, 2016)
Test: 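Genes that change LPS-induced Tnf promoter activity in mouse macrophages when knocked down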 (primary screen). Cell system: RAW264.7 G9 macrophages from mouse bearing reporters for p65 (GFP) and the Tnf promoter (mCherry). Reagents: siRNA pool against mouse genes, 100 nM. Timing: 16 h of LPS stimulation, after 2 days of siRNA transfection. Conditions: bacterial lipopolysaccharide (Salmonella minnesota R595), 10 ng/ml. Measurement: 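Nuclear mCherry signal of the Tnf promoter reporter measured by imaging after background removal, scaled to each plate median and turned into robust z-scores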. Reading the numbers: Tnf reporter robust z-score: higher = stronger Tnf promoter reporter signal after LPS; Tnf reporter intensity: higher = stronger Tnf promoter reporter signal. Hit rule: 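Called active when robust z-score is at most -1.3, matching the median of the Tlr4 knock-down control, or over 3; control wells and wells with under 50 cells never active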. Calls: active = Tnf reporter clearly lowered or raised; inactive = no clear change in Tnf reporter.
The deposit covers about 17,000 reagents; shown is a random part of them. About 1,110 of all reagents (6.6%) were called active. 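Active means lowered or raised reporter signal; replicate intensities are raw and not normalised per plate.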 Entries without a mark were called inactive.

The first 2 entries, ahead of the listing:
no.	gene	Tnf reporter robust z-score	fewer than 50 cells in well	Tnf reporter intensity, replicate 1	Tnf reporter intensity, replicate 2
1	Mkks (McKusick-Kaufman syndrome)	0.77	enough cells in well	336	256
2	Rims2 (regulating synaptic membrane exocytosis 2)	0.01	enough cells in well	154	103

The listing, repeating the preview:
no.	gene	Tnf reporter robust z-score	fewer than 50 cells in well	Tnf reporter intensity, replicate 1	Tnf reporter intensity, replicate 2
1	Mkks (McKusick-Kaufman syndrome)	0.77	enough cells in well	336	256
2	Rims2 (regulating synaptic membrane exocytosis 2)	0.01	enough cells in well	154	103
3	Jrk (JRK helix-turn-helix protein)	-0.07	enough cells in well	195	157
4	Cldn5 (claudin 5)	-0.6	enough cells in well	201	162
5	Celf3 (CUGBP, Elav-like family member 3)	0.78	enough cells in well	157	110
6	Aldob (aldolase B, fructose-bisphosphate)		fewer than 50 cells per well; well left out of calls	65.9	54.9
7	Cetn1 (centrin 1)	-0.46	enough cells in well	206	178
8	Prr18 (proline rich 18)	1.38	enough cells in well	253	288
9	Ube2j2 (ubiquitin-conjugating enzyme E2J 2)	0.64	enough cells in well	279	280
10	Zfp207 (zinc finger protein 207)	-1.14	enough cells in well	90.2	61.6
11	Endou (endonuclease, polyU-specific)	1.15	enough cells in well	363	248
12	Scara3 (scavenger receptor class A, member 3)	0	enough cells in well	338	186
13	Alg12 (ALG12 alpha-1,6-mannosyltransferase)	-0.15	enough cells in well	144	228
14	Echs1 (enoyl Coenzyme A hydratase, short chain, 1, mitochondrial)	-0.46	enough cells in well	197	192
15	Mug1 (murinoglobulin 1)	-0.51	enough cells in well	181	78.1
16	Man1a (mannosidase 1, alpha)	-1.08	enough cells in well	132	83
17	Gucy1a2 (guanylate cyclase 1, soluble, alpha 2)	-0.06	enough cells in well	261	222
18	Pon3 (paraoxonase 3)	-0.03	enough cells in well	244	191
19	9930022D16Rik (RIKEN cDNA 9930022D16 gene)	0.61	enough cells in well	226	218
20	Clec4d (C-type lectin domain family 4, member d)	-0.67	enough cells in well	187	162
21	Osbpl11 (oxysterol binding protein-like 11)	0.35	enough cells in well	150	163
22	Med10 (mediator complex subunit 10)	-0.96	enough cells in well	120	125
23	2010013B10RIK		fewer than 50 cells per well; well left out of calls	148	49.8
24	Mtr (5-methyltetrahydrofolate-homocysteine methyltransferase)	0.36	enough cells in well	278	245
